Measurements reported in PubChem BioAssay AID1259405 (NCATS, 2018).

- Assay: 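Mouse-designed siRNAs used to find CHO productivity engineering targets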 (primary screen)
- System: Chinese hamster CHO-K1 ovary cells with stable secreted eGFP expression
- Knock-down reagent: single siRNA against mouse genes, 0.8 pmol siRNA per well (2 µl of 400 nM stock)
- Duration: 3 days
- Measurement: 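Per-well intracellular GFP measured by laser scanning cytometry, plus viability from ATP luminescence, each relative to plate median of non-targeting control wells, in %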
- Scale: GFP, % of control: higher = more GFP per well, higher productivity; viability (ATP), % of control: higher = more viable cells (more ATP)
- Call rule: 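Called active when intracellular GFP, relative to negative control, is at or above 120%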
Here is a random part of about 50,000 reagents. Of all reagents, about 4,000 (8%) got an active call. 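Mouse siRNA library applied to hamster cells; one well for each siRNA.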 Unmarked entries are inactive. The numbers tell different reagents against one gene apart.

no.	Gene	reagent	GFP, % of control	viability (ATP), % of control
1	Map4k4	1	115	91
2	Map4k4	2	71.2	78
3	Map4k4	3	52.2	65.8
4	1700020L24Rik	1	79.2	72.7
5	1700020L24Rik	2	80.3	88.2
6	1700020L24Rik	3	86.4	67.7
7	Rbm3	1	65.8	70
8	Rbm3	2	68.3	92.3
9	Rbm3	3	52	58.5
10	Qpctl	1	117	99.4
11	Qpctl	2	54.4	38.8
12	Qpctl	3	91.2	53.8
13	Lbx1	1	104	92.1
14	Lbx1	2	112	91.9
15	Lbx1	3	52.6	60.7
16	Bkgd	1	78.3	58.5
17	Bkgd	2	62.5	39.1
18	Bkgd	3	89	101
19	Fam228b	1	60.5	63.1
20	Fam228b	2	83.6	59.3
21	Fam228b	3	70.6	75.4
22	Atrn	1	72.9	70.1
23	Atrn	2	74.3	68.4
24	Atrn	3	45.1	48.7
25	Zfp69	1	63.9	73.6
26	Zfp69	2	67.7	85.8
27	Zfp69	3	101	84.4
28	Tmem252	1	92.5	57.7
29	Tmem252	2	230 (active)	143
30	Tmem252	3	156 (active)	73.7
31	Septin5	1	68.8	79.9
32	Septin5	2	113	103
33	Septin5	3	73.1	63.9
34	Spin1	1	73.3	57.3
35	Spin1	2	104	164
36	Spin1	3	123 (active)	128
37	Shoc2	1	74.1	63.7
38	Shoc2	2	71.5	48.6
39	Shoc2	3	71.3	62.8
40	Phf5a	1	69.7	46.7
41	Phf5a	2	99.3	64.7
42	Phf5a	3	76.3	100
43	Rbm12b2	1	111	85
44	Rbm12b2	2	114	82.5
45	Rbm12b2	3	83.7	86.9
46	Mrgpra1	1	91.1	76.8
47	Mrgpra1	2	63.1	76.6
48	Mrgpra1	3	94.6	88.8
49	Bace2	1	68	71
50	Bace2	2	89.1	87
51	Bace2	3	67.2	77.9
52	Prl7a2	1	31.1	17.6
53	Prl7a2	2	87	40.6
54	Prl7a2	3	113	43.6
55	2010003K11Rik	1	81.6	87.8
56	2010003K11Rik	2	75.7	99
57	2010003K11Rik	3	53	72.4
58	Camkv	1	70.2	72.6
59	Ly6f	1	123 (active)	57.1
60	Ly6f	2	146 (active)	59.3
61	Ly6f	3	48.7	68.5
62	Atf1	1	91	85.8
63	Atf1	2	80.9	68.4
64	Adipor2	1	100	85.2
65	Adipor2	2	47.3	50
66	Adipor2	3	99.1	75.9
67	Phxr1	1	62	39.7
68	Phxr1	2	62.6	35.4
69	Phxr1	3	102	19.5
70	Or5b96	1	124 (active)	38.9
71	Or5b96	2	138 (active)	101
72	Or5b96	3	74.4	77
73	Slfn3	1	55.9	44.4
74	Slfn3	2	46.6	69.6
75	Slfn3	3	63.2	69.3
76	Katnb1	1	50.7	64.3
77	Katnb1	2	70	56
78	Katnb1	3	70.1	85.1
79	Psmb4	1	11.1	4.77
80	Psmb4	2	29.5	19.9
81	Psmb4	3	16.7	6.19
82	Limk2	1	99.4	53.4
83	Limk2	2	40.2	55.4
84	Limk2	3	67.3	72.9
85	Med20	1	50.9	32.9
86	Med20	2	66.8	75.8
87	Med20	3	69	75.4
88	Pcdh20	1	82.3	83.6
89	Pcdh20	2	46.4	43.5
90	Tkt	1	102	133
91	Tkt	2	46.6	112
92	Tkt	3	71.7	125
93	Tmem125	1	46.3	65.7
94	Tmem125	2	65.4	75.3
95	Tmem125	3	75.9	75.4
96	Olfm3	1	70.1	93.6
97	Olfm3	2	79.9	100
98	Olfm3	3	16.9	20.3
99	Klhl4	1	66.5	55.7
100	Klhl4	2	69.1	85.2
101	Klhl4	3	84.2	80
102	Plcd3	1	56.1	65.1
103	Plcd3	2	61.5	56.7
104	Plcd3	3	96.6	54.1
105	Olfr197	1	74.3	70.2
106	Olfr197	2	58.6	41
107	Olfr197	3	53	92.1

Laid out differently: 16 of the entries above
Map4k4 #2
- GFP, % of control: 71.2
- viability (ATP), % of control: 78

Map4k4 #3
- GFP, % of control: 52.2
- viability (ATP), % of control: 65.8

1700020L24Rik #1
- GFP, % of control: 79.2
- viability (ATP), % of control: 72.7

1700020L24Rik #2
- GFP, % of control: 80.3
- viability (ATP), % of control: 88.2

1700020L24Rik #3
- GFP, % of control: 86.4
- viability (ATP), % of control: 67.7

Rbm3 #1
- GFP, % of control: 65.8
- viability (ATP), % of control: 70

Rbm3 #2
- GFP, % of control: 68.3
- viability (ATP), % of control: 92.3

Rbm3 #3
- GFP, % of control: 52
- viability (ATP), % of control: 58.5

Qpctl #1
- GFP, % of control: 117
- viability (ATP), % of control: 99.4

Qpctl #2
- GFP, % of control: 54.4
- viability (ATP), % of control: 38.8

Qpctl #3
- GFP, % of control: 91.2
- viability (ATP), % of control: 53.8

Lbx1 #1
- GFP, % of control: 104
- viability (ATP), % of control: 92.1

Lbx1 #2
- GFP, % of control: 112
- viability (ATP), % of control: 91.9

Lbx1 #3
- GFP, % of control: 52.6
- viability (ATP), % of control: 60.7

Bkgd #1
- GFP, % of control: 78.3
- viability (ATP), % of control: 58.5

Bkgd #2
- GFP, % of control: 62.5
- viability (ATP), % of control: 39.1
